This assay deals with myc-EXOSC3 (UniProt Q7TQK4). Nature of the assay: affinity purification with mass spectrometry; myc-EXOSC3 precipitated with anti-myc magnetic beads from lysate of transfected N2A cells; on-bead digestion, LC-MS/MS; vector IP as control.

The chains behind the UniProt entries cited, without tags or fusion partners.
UniProt Q7TQK4: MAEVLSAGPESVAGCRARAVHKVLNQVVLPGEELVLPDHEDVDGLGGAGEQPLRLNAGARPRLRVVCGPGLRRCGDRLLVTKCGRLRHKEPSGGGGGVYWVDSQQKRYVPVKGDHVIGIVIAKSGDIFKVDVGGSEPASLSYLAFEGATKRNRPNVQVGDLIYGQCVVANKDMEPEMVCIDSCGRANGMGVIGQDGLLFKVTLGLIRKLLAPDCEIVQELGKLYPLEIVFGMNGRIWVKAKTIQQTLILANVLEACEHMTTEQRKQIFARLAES
UniProt Q80U78: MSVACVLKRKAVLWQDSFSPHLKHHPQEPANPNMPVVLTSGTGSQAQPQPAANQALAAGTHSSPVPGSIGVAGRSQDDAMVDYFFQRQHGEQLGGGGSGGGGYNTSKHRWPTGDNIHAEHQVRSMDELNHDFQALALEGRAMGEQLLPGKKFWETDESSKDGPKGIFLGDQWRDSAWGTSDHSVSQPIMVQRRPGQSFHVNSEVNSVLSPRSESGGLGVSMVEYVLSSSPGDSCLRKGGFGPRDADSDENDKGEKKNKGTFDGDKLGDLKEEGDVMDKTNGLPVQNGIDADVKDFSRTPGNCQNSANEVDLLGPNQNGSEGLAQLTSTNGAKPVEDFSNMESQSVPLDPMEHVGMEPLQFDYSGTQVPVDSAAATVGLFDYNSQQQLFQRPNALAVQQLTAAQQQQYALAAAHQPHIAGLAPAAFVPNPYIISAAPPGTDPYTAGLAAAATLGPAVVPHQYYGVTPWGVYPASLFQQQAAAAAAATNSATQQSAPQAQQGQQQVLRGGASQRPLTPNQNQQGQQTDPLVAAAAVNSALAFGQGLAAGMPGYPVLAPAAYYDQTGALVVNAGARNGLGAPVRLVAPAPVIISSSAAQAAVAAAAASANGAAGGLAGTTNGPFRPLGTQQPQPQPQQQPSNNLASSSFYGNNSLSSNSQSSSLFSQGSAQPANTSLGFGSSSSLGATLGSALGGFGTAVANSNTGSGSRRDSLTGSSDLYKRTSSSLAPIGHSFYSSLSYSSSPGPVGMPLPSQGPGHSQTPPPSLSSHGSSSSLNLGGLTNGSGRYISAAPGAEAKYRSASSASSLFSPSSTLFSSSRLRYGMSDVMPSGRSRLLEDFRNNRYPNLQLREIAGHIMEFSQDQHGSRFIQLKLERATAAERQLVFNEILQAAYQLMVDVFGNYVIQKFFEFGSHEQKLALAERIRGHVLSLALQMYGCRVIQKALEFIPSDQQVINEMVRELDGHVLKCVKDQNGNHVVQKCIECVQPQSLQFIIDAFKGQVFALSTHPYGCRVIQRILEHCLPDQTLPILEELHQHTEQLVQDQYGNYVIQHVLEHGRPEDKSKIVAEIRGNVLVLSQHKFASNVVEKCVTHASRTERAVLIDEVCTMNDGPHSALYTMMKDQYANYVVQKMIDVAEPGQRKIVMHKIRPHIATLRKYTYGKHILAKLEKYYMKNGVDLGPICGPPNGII
UniProt Q80U58: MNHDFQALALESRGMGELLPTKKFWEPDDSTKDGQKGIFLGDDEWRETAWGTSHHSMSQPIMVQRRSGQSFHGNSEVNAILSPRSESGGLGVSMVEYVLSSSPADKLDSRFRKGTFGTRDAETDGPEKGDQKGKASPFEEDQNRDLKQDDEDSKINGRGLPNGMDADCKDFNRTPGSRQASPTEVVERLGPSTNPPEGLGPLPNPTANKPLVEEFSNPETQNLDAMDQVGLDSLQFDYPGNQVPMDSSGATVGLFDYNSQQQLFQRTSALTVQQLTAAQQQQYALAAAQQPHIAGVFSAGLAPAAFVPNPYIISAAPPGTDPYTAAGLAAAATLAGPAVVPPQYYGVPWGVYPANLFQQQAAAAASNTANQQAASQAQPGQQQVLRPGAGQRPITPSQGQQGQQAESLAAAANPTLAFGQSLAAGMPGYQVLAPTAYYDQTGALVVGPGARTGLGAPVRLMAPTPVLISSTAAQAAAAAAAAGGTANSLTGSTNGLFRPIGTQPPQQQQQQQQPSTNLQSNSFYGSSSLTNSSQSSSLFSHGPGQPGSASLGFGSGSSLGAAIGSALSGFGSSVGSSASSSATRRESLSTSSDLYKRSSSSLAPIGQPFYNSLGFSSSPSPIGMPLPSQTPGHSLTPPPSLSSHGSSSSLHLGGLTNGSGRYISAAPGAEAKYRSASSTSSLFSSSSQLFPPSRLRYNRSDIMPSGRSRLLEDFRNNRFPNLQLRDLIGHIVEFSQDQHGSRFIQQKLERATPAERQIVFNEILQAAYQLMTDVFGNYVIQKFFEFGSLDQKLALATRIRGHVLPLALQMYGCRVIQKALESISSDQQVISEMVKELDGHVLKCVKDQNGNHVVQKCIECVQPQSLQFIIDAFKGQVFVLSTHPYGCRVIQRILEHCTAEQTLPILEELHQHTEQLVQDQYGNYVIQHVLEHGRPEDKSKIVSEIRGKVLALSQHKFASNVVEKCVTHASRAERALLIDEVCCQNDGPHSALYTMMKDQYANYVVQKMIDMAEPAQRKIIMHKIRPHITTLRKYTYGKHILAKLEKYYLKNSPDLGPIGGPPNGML

These are yes or no findings as the source states them, for the method shown. Binding seen in cells or lysates may run through a third protein. A yes stands for co-enrichment or nearness to the bait. Other partners may have been found.

As for PUM1 (from UniProt Q80U78 1-1189), the binding result is reported as “binds”. As for PUM2 (from UniProt Q80U58 1-1066), the entry is “binds”.

The record behind these values is paper PMC10875230.
